{"source": "paper PMC5469152", "binders": {"B1": {"name": "Aldehyde dehydrogenase 3H1, cYFP fusion (BiFC prey) (protein, UniProt Q70DU8 1-484)", "chain": "MAAKKVFGSAEASNLVTELRRSFDDGVTRGYEWRVTQLKKLMIICDNHEPEIVAALRDDLGKPELESSVYEVSLLRNSIKLALKQLKNWMAPEKAKTSLTTFPASAEIVSEPLGVVLVISAWNYPFLLSIDPVIGAISAGNAVVLKPSELAPASSALLTKLLEQYLDPSAVRVVEGAVTETSALLEQKWDKIFYTGSSKIGRVIMAAAAKHLTPVVLELGGKSPVVVDSDTDLKVTVRRIIVGKWGCNNGQACVSPDYILTTKEYAPKLIDAMKLELEKFYGKNPIESKDMSRIVNSNHFDRLSKLLDEKEVSDKIVYGGEKDRENLKIAPTILLDVPLDSLIMSEEIFGPLLPILTLNNLEESFDVIRSRPKPLAAYLFTHNKKLKERFAATVSAGGIVVNDIAVHLALHTLPFGGVGESGMGAYHGKFSFDAFSHKKAVLYRSLFGDSAVRYPPYSRGKLRLLKALVDSNIFDLFKVLLGLA"}, "B2": {"name": "Salt-inducible zinc finger 1, cYFP fusion (BiFC prey) (protein, UniProt Q93ZS9 1-580)", "chain": "MCSGPKSNLCSSRTLTEIESRQKEEETMLLLEFAACDDLDSFKREVEEKGLDLDESGLWYCRRVGSKKMGLEERTPLMVAAMYGSIKVLTFIVSTGKSDVNRACGEERVTPLHCAVAGCSVNMIEVINVLLDASALVNSVDANGNQPLDVFVRVSRFVASPRRKAVELLLRGGGVGGLIDEAVEEEIKIVSKYPADASLPDINEGVYGSDEFRMYSFKVKPCSRAYSHDWTECAFVHPGENARRRDPRKYPYTCVPCPEFRKGSCPKGDSCEYAHGVFESWLHPAQYKTRLCKDETGCARKVCFFAHKREEMRPVNASTGSAVAQSPFSSLEMMPGLSPLAYSSGVSTPPVSPMANGVPSSPRNGGSWQNRVNTLTPPALQLNGGSRLKSTLSARDIDMEMEMELRLRGFGNNVEETFGSYVSSPSRNSQMGQNMNQHYPSSPVRQPPSQHGFESSAAAAVAVMKARSTAFAKRSLSFKPATQAAPQSNLSDWGSPNGKLEWGMKGEELNKMRRSVSFGIHGNNNNNAARDYRDEPDVSWVNSLVKDSTVVSERSFGMNERVRIMSWAEQMYREKEQTVV"}, "B3": {"name": "Senescence-associated protein SAG21, cYFP fusion (BiFC prey) (protein, UniProt Q93WF6 47-97)", "chain": "ASAVMKKKGVEESTQKISWVPDPKTGYYRPETGSNEIDAAELRAALLNNKQ"}, "B4": {"name": "DCD (Development and Cell Death) domain protein At5g42050, cYFP fusion (BiFC prey) (protein, UniProt Q8RXN8 1-349)", "chain": "MEYNNNNQQSFWQFSDQLRVQTPNLANLSLNDSIWSTNSVFKERRNLDIAATTDKNNNQIDYYQKKTTSDNINSNWNWKSSGSNNDMGLGFGPVGSKSTVDLNPIDKFNSPFNDTWKFNSVNVNVNGYSPSSAVNGDFNKGVYTSMKKYGYNVNLKNNNKNKGIDEDHQIQKGGKKNRKNQQNNNNQRNEDDKNNGLDKRFKTLPPAEALPRNETIGGYIFVCNNDTMEENLKRQLFGLPPRYRDSVRAITPGLPLFLYNYSTHQLHGIYEAASFGGTNIELNAFEDKKCPGESRFPAQVRAITRKVCLPLEEDSFRPILHHYDGPKFRLELSVPEVLSLLDIFADQNP"}, "B5": {"name": "Putative protein kinase At1g71410, cYFP fusion (BiFC prey) (protein, UniProt Q9C9H8 1-909)", "chain": "MSINMKTFTQALARTAAVIEKTVHTTVQEVTGPKALQDYELLDQIGSAGPGLAWKLYAAKARDSTRPQQYPTVCVWMLDKRALSEARVRANLSKAAEDAFLDLIRADAGKLVRLRHPGVVHVVQALDENKNAMALVTEPLFASVANALGNVENVGNVPKDLKSMEMSLLEVKHGLLQISETLNFLHNNANLIHRAISPENVLITSAGSWKLAGFGFAISAAQAGNLDNMQSFHYSEYDVEDSILPVQPSLNYTAPELMRSKSPSAGASSDIFSFGCLAYHLVARKPLFDCNNNVKMYMNTLNYITNESFSSIPSELVSDLQRMLSTNESFRPTALDFTGSNFFRSDARLRALRFLDHLLERDNMQKSEFLKALSDMWKDFDSRVLRYKVLPPLCAELRNLVLQPIILPMVLTIAQSQDRTDFELITLPALVPVLSTASGDTLLLLVKHADLITNKTDSEHLVSHVLPLLLRAYNDNDVRIQEEVLKRSTSVAKQLDGQVVRQAILPRVHGLALKTTVAAVRVNALLCLAELVQTLDKPAAIEILETIQRCTAVDRSAPTLMCTLAVANAILKQYGVEFTAEHVLTLMMPLLTAQQLNVQQFAKYMLFVKDILRKIEEKRGVTVNDSGVPEVKPHSAANGLQFQSSTQIPEKVASAAKSSPAWDEDWGSPSKDSAVGNPASSRHNTNDQFNKSTDQSQPSIMSTLPNKTTAPTTCPAVDIEWPPRQSSSLTAPATDNQTQLNTGTSFASGFDELDPFANWPPRPNNGASVASTGLKNGAASNFSNNLPGGTHFQTANNDNWAFSSASLSSLKPPQQGNQGISANNQDPLNSFGVPKQSQGMPSFTSGSYNNQKPADISSIFGSSKTEPSAMKLAPPPSIAMGRGRGRGRGGTGTSTSKPSGSQPSLLDLL"}, "B6": {"name": "ESCRT-related protein CHMP1A, cYFP fusion (BiFC prey) (protein, UniProt Q8LE58 1-203)", "chain": "MGNTDKLMNQIFELKFTSKSLQRQARKCEKEERSEKLKVKKAIEKGNMDGARIYAENAIRKRSEQMNYLRLSSRLDAVVARLDTQAKMATITKSMTNIVKSLESSLTTGNLQKMSETMDSFEKQFVNMEVQAEFMDNAMAGSTSLSTPEGEVNSLMQQVADDYGLEVSVGLPQPAGHAIPTKTEEKVEEDDLTRRLAELKARG"}, "B7": {"name": "CASP-like protein, cYFP fusion (BiFC prey) (protein, UniProt Q8LE26 1-188)", "chain": "MTNPDNMKPVEATDVESAAEKTSEPTPASGTSTITQRWKREDLIKKASPITRGICLLFSLIAFLIMVSNKHGYGRNFNDYEEYRYVLAISIISTLYTAWQTFAHFSKREIFDRRTSILVDFSGDQIVAYLLISAASSAIPLTNIFREGQDNIFTDSAASAISMAIFAFIALALSALFSGYKLSTHSFI"}, "B8": {"name": "Zinc finger CCCH domain-containing protein 29, cYFP fusion (BiFC prey) (protein, UniProt Q9XEE6 1-597)", "chain": "MCGAKSNLCSSKTLTEVEFMRQKSEDGASATCLLEFAACDDLSSFKREIEENPSVEIDESGFWYCRRVGSKKMGFEERTPLMVAAMYGSMEVLNYIIATGRSDVNRVCSDEKVTALHCAVSGCSVSIVEIIKILLDASASPNCVDANGNKPVDLLAKDSRFVPNQSRKAVEVLLTGIHGSVMEEEEEELKSVVTKYPADASLPDINEGVYGTDDFRMFSFKVKPCSRAYSHDWTECPFVHPGENARRRDPRKYPYTCVPCPEFRKGSCPKGDSCEYAHGVFESWLHPAQYRTRLCKDETGCARRVCFFAHRRDELRPVNASTGSAMVSPRSSNQSPEMSVMSPLTLGSSPMNSPMANGVPLSPRNGGLWQNRVNSLTPPPLQLNGSRLKSTLSARDMDMEMELRFRGLDNRRLGDLKPSNLEETFGSYDSASVMQLQSPSRHSQMNHYPSSPVRQPPPHGFESSAAMAAAVMNARSSAFAKRSLSFKPAPVASNVSDWGSPNGKLEWGMQRDELNKLRRSASFGIHGNNNNSVSRPARDYSDEPDVSWVNSLVKENAPERVNERVGNTVNGAASRDKFKLPSWAEQMYIDHEQQIVA"}, "B9": {"name": "Magnesium transporter MRS2-3, cYFP fusion (BiFC prey) (protein, UniProt Q9LJN2 1-484)", "chain": "MRGARPDEFNFSTNPSTPNTGQPTPTYPAGVGGGGGGRKKGVGVRTWLVLNSSGQSEPKEEGKHSIMRRTGLPARDLRILDPLLSYPSTVLGRERAIVINLEHIKAIITAQEVLLLNSKDPSVSPFIDELQRRILCHHHATKPQEEQNSGGEPHTRVDPAQGEAGTEQSSGDQGSEAKKDAKQSLENQDGSKVLPFEFVALEACLEAASSSLEHEALRLELEAHPALDKLTSKISTLNLERVRQIKSRLVAITGRVQKVRDELEHLLDDDEDMAEMYLTEKLAQKLEDSSNSSMNESDTFEVDLPQGDEDDRLPPEFASEANRDGRYLQANDAHELLMSTQSALSRNSRGTHTSSTRSAMTNKLDVEELEMLLEAYFVQIDGILNKLSTLREYVDDTEDYINIMLDDKQNHLLQMGVMLTTATLVMSAFIAVAGVFGMNITIELFTDNKHGPSRFIWTVIGGSIGSICLYVGAIGWCKYKRLLE"}}, "note": "No constants are given. Whether binding was seen depends on the method and setting. In cells and extracts the contact can be indirect. Some binding calls cover weakened binding; strength is not graded here. Where a sequence is shown, tags or fusion partners need not be part of it.", "data": [{"target": "T1, nYFP-XLG1 (BiFC bait) (Arabidopsis thaliana) (UniProt O80462)", "T1 sequence": "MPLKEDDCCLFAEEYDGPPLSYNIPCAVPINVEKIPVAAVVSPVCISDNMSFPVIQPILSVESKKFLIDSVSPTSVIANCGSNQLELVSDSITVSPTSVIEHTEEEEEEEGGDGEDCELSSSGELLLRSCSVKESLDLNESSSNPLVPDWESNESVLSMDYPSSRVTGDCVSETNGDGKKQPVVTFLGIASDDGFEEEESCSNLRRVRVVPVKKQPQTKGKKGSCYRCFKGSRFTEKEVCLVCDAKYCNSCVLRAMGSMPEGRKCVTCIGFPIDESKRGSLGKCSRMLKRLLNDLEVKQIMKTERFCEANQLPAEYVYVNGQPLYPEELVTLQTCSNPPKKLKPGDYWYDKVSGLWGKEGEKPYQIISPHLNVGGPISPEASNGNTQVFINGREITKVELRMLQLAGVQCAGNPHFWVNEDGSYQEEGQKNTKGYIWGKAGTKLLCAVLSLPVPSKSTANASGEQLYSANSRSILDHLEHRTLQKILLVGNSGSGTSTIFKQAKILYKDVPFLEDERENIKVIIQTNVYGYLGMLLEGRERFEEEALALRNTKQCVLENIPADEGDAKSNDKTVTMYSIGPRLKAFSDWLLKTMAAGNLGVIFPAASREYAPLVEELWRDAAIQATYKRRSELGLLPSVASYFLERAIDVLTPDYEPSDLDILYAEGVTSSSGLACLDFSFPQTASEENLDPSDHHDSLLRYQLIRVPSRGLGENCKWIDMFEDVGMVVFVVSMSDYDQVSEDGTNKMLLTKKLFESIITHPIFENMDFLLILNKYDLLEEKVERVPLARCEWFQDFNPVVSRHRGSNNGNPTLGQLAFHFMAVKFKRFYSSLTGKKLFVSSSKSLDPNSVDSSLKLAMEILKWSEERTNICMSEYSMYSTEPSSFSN", "test": "split reporter; BiFC: nYFP-XLG1 or nYFP-XLG3 with cYFP-tagged prey in leaf cells, confocal imaging of YFP; mitochondrial RFP marker or NLS-CFP as control of transformation", "values": [{"binder": "B1", "binding": "binds"}, {"binder": "B2", "binding": "binds"}, {"binder": "B3", "binding": "binds"}, {"binder": "B4", "binding": "binds"}, {"binder": "B5", "binding": "binds"}, {"binder": "B6", "binding": "binds"}, {"binder": "B7", "binding": "binds"}, {"binder": "B8", "binding": "binds"}, {"binder": "B9", "binding": "binds"}]}]}
